Consider 1 molecule from publication PMC11323726.

Chains of the proteins cited; added tags and fusions are not shown.
UniProt A0QT91: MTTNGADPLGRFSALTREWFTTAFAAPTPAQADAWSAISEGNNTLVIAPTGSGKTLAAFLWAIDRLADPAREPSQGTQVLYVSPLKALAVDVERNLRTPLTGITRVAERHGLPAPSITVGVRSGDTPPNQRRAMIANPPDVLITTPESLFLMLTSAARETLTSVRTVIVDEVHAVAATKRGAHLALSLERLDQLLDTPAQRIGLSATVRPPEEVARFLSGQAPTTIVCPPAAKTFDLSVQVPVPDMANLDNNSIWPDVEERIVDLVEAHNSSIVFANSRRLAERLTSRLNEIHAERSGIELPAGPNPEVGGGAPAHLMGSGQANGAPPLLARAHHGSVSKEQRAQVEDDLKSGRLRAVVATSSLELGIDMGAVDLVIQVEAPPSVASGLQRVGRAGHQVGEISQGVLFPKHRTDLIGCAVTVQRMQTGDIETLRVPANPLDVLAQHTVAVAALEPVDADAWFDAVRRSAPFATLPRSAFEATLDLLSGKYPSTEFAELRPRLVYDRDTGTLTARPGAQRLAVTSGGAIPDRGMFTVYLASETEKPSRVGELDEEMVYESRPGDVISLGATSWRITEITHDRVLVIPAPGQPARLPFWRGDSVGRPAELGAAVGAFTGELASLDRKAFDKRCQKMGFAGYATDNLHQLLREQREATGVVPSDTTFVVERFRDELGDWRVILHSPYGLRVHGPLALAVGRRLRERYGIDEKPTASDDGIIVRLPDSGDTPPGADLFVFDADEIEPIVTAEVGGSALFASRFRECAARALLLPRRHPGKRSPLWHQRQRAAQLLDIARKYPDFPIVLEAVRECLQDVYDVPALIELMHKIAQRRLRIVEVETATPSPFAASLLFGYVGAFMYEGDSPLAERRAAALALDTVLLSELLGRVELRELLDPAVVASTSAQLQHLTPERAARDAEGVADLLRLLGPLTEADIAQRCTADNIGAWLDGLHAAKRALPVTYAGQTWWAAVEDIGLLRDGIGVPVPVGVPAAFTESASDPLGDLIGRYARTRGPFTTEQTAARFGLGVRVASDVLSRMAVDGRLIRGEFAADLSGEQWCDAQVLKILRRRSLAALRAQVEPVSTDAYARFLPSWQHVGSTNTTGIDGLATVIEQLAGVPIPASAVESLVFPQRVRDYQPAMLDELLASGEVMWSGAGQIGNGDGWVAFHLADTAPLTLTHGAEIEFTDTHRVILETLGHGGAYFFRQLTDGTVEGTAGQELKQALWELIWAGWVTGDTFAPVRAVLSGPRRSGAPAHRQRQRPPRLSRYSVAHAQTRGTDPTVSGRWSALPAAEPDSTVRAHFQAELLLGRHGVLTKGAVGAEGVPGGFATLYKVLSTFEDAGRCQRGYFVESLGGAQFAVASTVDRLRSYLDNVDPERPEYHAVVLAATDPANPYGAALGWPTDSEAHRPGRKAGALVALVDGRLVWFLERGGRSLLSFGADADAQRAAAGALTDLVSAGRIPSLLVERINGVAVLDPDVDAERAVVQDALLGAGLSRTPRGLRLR

These are yes or no findings as the source states them, for the method shown. Tags and fused reporters may be left off the sequences shown.

The experiment deals with Mycobacterium smegmatis Lhr helicase (M. smegmatis) (UniProt A0QT91). Description: SEC; recombinant Lhr and Nei2 mixed in vitro, then gel filtration; conditions not given; both purified. For orientation: In gel filtration, larger molecules generally elute earlier.

B1: Mycobacterium smegmatis Nei2 (enzyme, UniProt A0QT90 1-252)
chain: MPEGDTVFHTAAALRAALEGKTLTRCDVRVPRYATVDLSGAVVDEVLSRGKHLFIRAGSASIHSHLKMEGAWRIGHTKVAPHRIRIVLETADTRAIGIDLGILEVLDRGTDMDAVAYLGPDLLGPDWEPRVAADNLAADPDRPLAQALLDQRVMAGVGNVYCNELCFVFGRLPTAPVGTLKDPLRVVQRARDMLWLNRSRWNRTTTGDTRNGRQLWVYGRAGEPCRRCGTLIQTDRGGERVTYWCPVCQTAS
For B1, the binding entry is recorded as “no binding”.
